# Screening data, single-dose tests

From ChEMBL document CHEMBL3988442, “University of Dundee, Small-Polar-MMV Screening Library” (2021).

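Assay of Toxoplasma gondii numbers, read through their beta-galactosidase reporter with a colour substrate. Compounds at 50 µM. Higher reads as fewer parasites (inferred from which compounds were picked for retests). Of about 18,000 compounds tested this way, about 170 (0.94%) reached 50% or more in at least one test.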

Each number is a percent effect as filed.
The controls that fix the scale are not given in the record; negative values are as filed.
This is an unselected part of the compounds tested.

| SMILES | percent effect |
|---|---|
| `CCCNC(=O)CSCc1nc(-c2ccccc2)no1` | -4.22 |
| `CCc1cccc(CN)c1` | -5.745 |
| `O[C@H]1CCN(c2ncnc3ccccc23)C1` | 32.79 |
| `c1cc2sccc2c(N2CCNCC2)n1` | 13.67 |
| `CN(CC(=O)N1CCNC(=O)C1)Cc1csc(Br)c1` | -2.258 |
| `CCN(CC(=O)NCc1ncccc1F)C1CC1` | 1.133 |
| `CN(C)CC(=O)N[C@@H]1CCOC[C@H]1OCc1cscn1` | -15.11 |
| `OCC(F)(F)CNCc1cccc(-n2cccn2)c1` | 15.96 |
| `O=C(Cn1cc(Br)cn1)NC1CCCC1` | 10.76 |
| `CC(=O)c1c(SCC(=O)NC2CC2)nc(=O)[nH]c1C` | -10.06 |
| `NC(=O)N1CCCN(Cc2cc(Cl)cs2)CC1` | 2.496 |
| `COCC(O)CN(C)C(=O)c1cc(C)cc(F)c1` (stereo not given) | -1.359 |
| `Cc1ncc(C(=O)N2C[C@@H]3CCCN[C@@H]3C2)cn1` | -7.245 |
| `Cc1ccsc1C(C)NCCS(=O)(=O)N1CCOCC1` (stereo not given) | -12.86 |
| `COCCCN(Cc1ccncc1)C(=O)C1CCCC1` | 6.509 |
| `CSCCC(O)C(=O)NCCCc1ncc[nH]1` (stereo not given) | -6.605 |
| `CN(C)[C@H]1CN(C(=O)c2ccncc2)C[C@@H]1C1CC1` | -4.659 |
| `CNC(=O)[C@@H]1C[C@H](N)CN1C(=O)C1(C(F)(F)F)CC1` | -1.07 |
| `NC[C@@H]1CC(=O)N(C2CC2)[C@H]1c1cccnc1` | -0.7777 |
| `CC(Cn1ccnc1)NC(=O)CN1CCCC1=O` (stereo not given) | -4.388 |
| `CSCc1noc(CN2CCN(C)C(CCO)C2)n1` (stereo not given) | -1.604 |
| `O=C(NCc1cccc(Cn2cncn2)c1)C1CC1` | 24.5 |
| `Cc1ccc(OCC(=O)N(C)C)c(C)c1` | 0.5962 |
| `O=C(Nc1ccncn1)NC1CCSCC1` | -19.73 |
| `Cc1cc(NC(=O)CN2CCCCC2)no1` | -12.95 |
| `CCc1noc(Cn2cnc3ccccc3c2=O)n1` | -9.03 |
| `Cn1c(=O)oc2cc(CO)ccc21` | -31.35 |
| `COc1cccc(C(C)O)c1` (stereo not given) | -8.662 |
| `CCNCC(C)NC(=O)OC(C)(C)C` (stereo not given) | 15.35 |
| `O=C1CCN(CC(=O)c2ccccc2F)CCN1` | -3.68 |
| `c1ccc(CSc2nnc(C3CC3)[nH]2)nc1` | 24.35 |
| `Cn1nccc1CCC(=O)NCC[C@@H]1CCCN1` | 2.008 |
| `c1cncc(CC2CCNCC2)c1` | -3.232 |
| `CCC(c1ccc(F)cc1)N1CC[S+]([O-])CC1` (stereo not given) | 17.26 |
| `COc1cc(S(=O)(=O)n2ccc(C)n2)c(OC)cc1C` | -1.021 |
| `CC[S+]([O-])c1ccccc1C(=O)Nc1ccncc1` (stereo not given) | -3.749 |
| `O=C1NCCCc2[nH]c(C3(Cn4cccn4)CC3)nc21` | -8.597 |
| `Nc1ccc(CN2CCCC2)cn1` | -8.073 |
| `NC(=O)c1ccon1` | -5.304 |
| `COC(=O)C(C)(C)NC(=O)c1occc1Br` | 1.123 |
| `CCc1nc(N2CCN(C)C(CCO)C2)ncc1C` (stereo not given) | 0.4774 |
| `Nc1n[nH]c(SCC(=O)Nc2nccs2)n1` | 8.444 |
| `CC(C)n1cc(C(=O)N2CC(c3ccccn3)C2)cn1` | -5.857 |
| `O=C(NCc1ccccc1)N1CCNCC1` | -13.47 |
| `CC(=O)c1cc(C(=O)NCCSC(F)(F)F)[nH]n1` | 0.2879 |
| `O=C(NC1CCC(O)CC1)c1ccc2ccccc2n1` (stereo not given) | -6.799 |
| `CCc1cccnc1C(C)=O` | 20.04 |
| `CNC(=O)NC1CCNCC1` | -13.65 |
| `CC(C#N)OC(=O)c1cc(=O)[nH]c2ccccc12` (stereo not given) | -8.226 |
| `O=C(c1cc(Cl)ccc1F)N1CCNCC1` | -1.087 |
| `CCCSCC(=O)NCc1cscn1` | -13.38 |
| `CCN1CCSc2ccc(C(=O)NCCCOC)cc21` | 3.679 |
| `c1c[nH]c(C2CCCNC2)n1` (stereo not given) | 35.62 |
| `CCC1(O)CN(c2ncc(Cl)cn2)C1` | 9.239 |
| `CCc1cc(C(=O)NCc2ccncc2)cc(=O)[nH]1` | -1.728 |

Some entries from above, unchanged:

SMILES	percent effect
O=C(NCc1cccc(Cn2cncn2)c1)C1CC1	24.5
COC(=O)C(C)(C)NC(=O)c1occc1Br	1.123
c1cncc(CC2CCNCC2)c1	-3.232